The text below walks through data of paper PMC4786870.

The assay deals with Tcf7l2 (endogenous, rat oligodendrocyte lineage cells) (rat (endogenous in primary rat iOLs/mOLs)). The assay is described as follows: co-IP; endogenous proteins; 600 μg of lysate protein of rat iOLs or mOLs incubated with 3 μg anti-Tcf7l2, anti-Kaiso or anti-Sox10; western blot.

These are yes or no findings as the source states them, for the method shown. In cells and extracts the contact can be indirect. Binding calls can cover weak binding; strength is not graded here.

B1: Kaiso/Zbtb33 (endogenous, rat iOLs) (protein, UniProt D3ZAN8 1-670)
chain: MESRKLISATDIQYSASLLNSLNEQRGHGLFCDVTVIVEDRKFRAHRNILSASSTYFHQLFSVAGQVVELSFIRAEIFAEILNYIYSSKIVRVRADLLDELIKSGQLLGVKFIAELGVPLSQVKSISGTVQDGTAETLPSSSNDKSPEIEKSKDEAQDNGAPVMPIITESFSLSAEDYEMKKIIVTDSDDDDDDDVIFCSEILPAKEDLPSNNTATQVQPNPASVAISEVTPCTSSNSPPVTNITPPQLPTPVNQSTLSQAQGSEELLVSSASTHLTPNIILLNQAPLTAPPSVSSSLPNHMSSSVNVLVQNQQAPNSAVTGNKAEEEEEILDDDDDIISSSPDSAVSNTSLVPQADASKSTTFDGSLTQKMQAPILPQEPPSNSLKISDVITRNTNDPGLRSKHVMEGQKIITLDTATEIEGLSTGCKVYANIGEDTYDIVIPVKDDPDGGEAKLENELPKTSGSEPSNKRMKVKHDDHYELIVDGRVYYICIVCKRSYVCLTSLRRHFNIHSWEKKYQCRYCDKVFPLAEYRTKHEIHHTGERRYQCLACGKSFINYQFMSSHIKSVHSQDPSGDSKLYRLHPCKSLQIRQYAYLSNKPSAMPVMKDDAVGYKVDAGKEPPVGTTSAPPQNKSTFWEDIFIQQENDSIFKQNVTDGSTEFEFIIPESY
In the case of B1, the binding entry was “binds”.
